Data source: PubChem BioAssay AID504774 (Drosophila RNAi Screening Center, 2011)

Aim: 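Knock-downs that shift viability of MMS-exposed cells relative to untreated ones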 (primary screen)
Cells: Drosophila Kc167 cells
Reagents: long dsRNA against Drosophila genes, about 0.25 µg dsRNA per well
Duration: about 6 days: 3 days knock-down, then 3 days with or without MMS
Challenge: methyl methanesulphonate 0.004% (w/v) for 3 days after knock-down
Read-out: 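Viability in wells given MMS, read as ATP luminescence, normalised by quantiles plate by plate and averaged across replicates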
Scale: mean viability with MMS: higher = more surviving cells after MMS
The deposit covers about 23,000 reagents; below is an unselected part of those with a known target gene and a result. 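Values are quantile-normalised luminescence on an arbitrary scale; higher means more cells surviving MMS.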 The numbers tell different reagents against one gene apart. Further read-outs or replicates are left out here. Reagent sequences are not shown.

{"predicted target": "bab2", "reagent no.": 1, "mean viability with MMS": 3.53e6}
{"predicted target": "bab2", "reagent no.": 2, "mean viability with MMS": 3.23e6}
{"predicted target": "lost", "reagent no.": 1, "mean viability with MMS": 3.50e6}
{"predicted target": "lost", "reagent no.": 2, "mean viability with MMS": 3.57e6}
{"predicted target": "lost", "reagent no.": 3, "mean viability with MMS": 3.47e6}
{"predicted target": "Kah", "reagent no.": 1, "mean viability with MMS": 3.59e6}
{"predicted target": "Kah", "reagent no.": 2, "mean viability with MMS": 3.59e6}
{"predicted target": "CG9240", "reagent no.": 1, "mean viability with MMS": 3.59e6}
{"predicted target": "Ttc26", "reagent no.": 1, "mean viability with MMS": 2.02e6}
{"predicted target": "Prp6", "reagent no.": 1, "mean viability with MMS": 3.58e6}
{"predicted target": "Prp6", "reagent no.": 2, "mean viability with MMS": 3.25e6}
{"predicted target": "klu", "reagent no.": 1, "mean viability with MMS": 3.45e6}
{"predicted target": "oys", "reagent no.": 1, "mean viability with MMS": 3.39e6}
{"predicted target": "oys", "reagent no.": 2, "mean viability with MMS": 3.66e6}
{"predicted target": "RhoGAP54D", "reagent no.": 1, "mean viability with MMS": 3.44e6}
{"predicted target": "CG15877", "reagent no.": 1, "mean viability with MMS": 3.52e6}
{"predicted target": "Acbp6", "reagent no.": 1, "mean viability with MMS": 3.63e6}
{"predicted target": "CG14658", "reagent no.": 1, "mean viability with MMS": 3.26e6}
{"predicted target": "CG15347", "reagent no.": 1, "mean viability with MMS": 3.51e6}
{"predicted target": "CG13005", "reagent no.": 1, "mean viability with MMS": 3.51e6}
{"predicted target": "CG7227", "reagent no.": 1, "mean viability with MMS": 3.53e6}
{"predicted target": "CG15498", "reagent no.": 1, "mean viability with MMS": 3.81e6}
{"predicted target": "HisRS", "reagent no.": 1, "mean viability with MMS": 3.21e6}
{"predicted target": "CG13806", "reagent no.": 1, "mean viability with MMS": 3.51e6}

Entries above whose target name begins with B or b (2):
{"predicted target": "bab2", "reagent no.": 1, "mean viability with MMS": 3.53e6}
{"predicted target": "bab2", "reagent no.": 2, "mean viability with MMS": 3.23e6}
